# These are yes or no findings as the source states them, for the method shown. Binding seen in cells or lysates may run through a third protein. Some binding calls cover weakened binding; strength is not graded here.
# Protein sequences, listed by entry. Tags and fused reporters are not part of them. Residues count along the entry.
# UniProt Q9UPY5: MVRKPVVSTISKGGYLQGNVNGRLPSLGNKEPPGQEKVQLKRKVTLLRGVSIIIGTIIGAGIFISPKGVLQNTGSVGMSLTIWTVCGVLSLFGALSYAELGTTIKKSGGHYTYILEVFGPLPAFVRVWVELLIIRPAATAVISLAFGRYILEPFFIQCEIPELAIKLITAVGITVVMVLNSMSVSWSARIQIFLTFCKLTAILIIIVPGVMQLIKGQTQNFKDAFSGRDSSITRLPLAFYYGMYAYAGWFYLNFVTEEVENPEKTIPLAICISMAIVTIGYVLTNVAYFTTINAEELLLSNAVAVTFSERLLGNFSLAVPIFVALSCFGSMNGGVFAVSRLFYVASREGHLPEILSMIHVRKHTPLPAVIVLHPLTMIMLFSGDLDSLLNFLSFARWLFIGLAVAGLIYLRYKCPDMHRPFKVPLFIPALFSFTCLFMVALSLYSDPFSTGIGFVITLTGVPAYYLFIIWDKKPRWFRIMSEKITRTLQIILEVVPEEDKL
# UniProt P02671, residues 36-866: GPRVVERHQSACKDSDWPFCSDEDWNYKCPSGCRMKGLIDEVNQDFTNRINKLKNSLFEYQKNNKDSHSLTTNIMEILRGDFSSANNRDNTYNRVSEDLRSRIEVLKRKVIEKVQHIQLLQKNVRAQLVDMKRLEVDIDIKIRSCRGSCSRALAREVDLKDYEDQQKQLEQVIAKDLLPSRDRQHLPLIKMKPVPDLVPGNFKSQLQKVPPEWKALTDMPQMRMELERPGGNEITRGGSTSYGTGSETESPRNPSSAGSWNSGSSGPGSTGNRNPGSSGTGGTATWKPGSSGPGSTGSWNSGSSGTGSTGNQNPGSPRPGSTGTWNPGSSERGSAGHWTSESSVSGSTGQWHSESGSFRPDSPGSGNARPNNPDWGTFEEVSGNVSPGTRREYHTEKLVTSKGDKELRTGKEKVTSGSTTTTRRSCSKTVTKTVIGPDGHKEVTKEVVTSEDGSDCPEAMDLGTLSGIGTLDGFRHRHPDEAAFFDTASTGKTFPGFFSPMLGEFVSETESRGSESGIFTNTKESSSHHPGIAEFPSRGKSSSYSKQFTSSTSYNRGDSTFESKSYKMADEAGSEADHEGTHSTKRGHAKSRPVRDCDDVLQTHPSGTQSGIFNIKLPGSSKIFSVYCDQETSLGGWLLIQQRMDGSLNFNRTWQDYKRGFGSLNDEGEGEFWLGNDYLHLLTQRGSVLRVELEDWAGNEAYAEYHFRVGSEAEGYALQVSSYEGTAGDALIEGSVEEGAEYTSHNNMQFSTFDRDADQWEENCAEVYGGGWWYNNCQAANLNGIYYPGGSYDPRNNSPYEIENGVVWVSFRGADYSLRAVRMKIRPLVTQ
# Biological target: Solute carrier family 7 member 11 (SLC7A11/xCT) (human (endogenous in A549)) (UniProt Q9UPY5)
# Assay: co-IP; endogenous proteins in A549 whole-cell lysates; anti-FGA or anti-xCT (mouse monoclonal) antibody 1h, then magnetic Protein A/G beads 1h, four washes with lysis buffer; normal mouse IgG as negative control; reciprocal
substance,measurement,value
fibrinogen alpha chain (FGA) (from UniProt P02671 36-866),binding,binds

# Source: publication PMC12375581
